# Test results as given in the supplement of paper PMC10849652.
# Amino acid sequences for entries named in this document (tags omitted). A change or cut given only in a name is not applied to a line headed by its entry.
# UniProt Q9H8W3: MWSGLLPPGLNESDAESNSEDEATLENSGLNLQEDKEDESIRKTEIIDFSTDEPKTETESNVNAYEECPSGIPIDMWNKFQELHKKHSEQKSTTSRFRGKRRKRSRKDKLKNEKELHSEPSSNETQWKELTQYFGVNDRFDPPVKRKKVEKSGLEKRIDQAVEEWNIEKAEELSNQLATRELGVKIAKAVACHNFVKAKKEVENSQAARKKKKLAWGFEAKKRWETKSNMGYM
# UniProt Q86X53: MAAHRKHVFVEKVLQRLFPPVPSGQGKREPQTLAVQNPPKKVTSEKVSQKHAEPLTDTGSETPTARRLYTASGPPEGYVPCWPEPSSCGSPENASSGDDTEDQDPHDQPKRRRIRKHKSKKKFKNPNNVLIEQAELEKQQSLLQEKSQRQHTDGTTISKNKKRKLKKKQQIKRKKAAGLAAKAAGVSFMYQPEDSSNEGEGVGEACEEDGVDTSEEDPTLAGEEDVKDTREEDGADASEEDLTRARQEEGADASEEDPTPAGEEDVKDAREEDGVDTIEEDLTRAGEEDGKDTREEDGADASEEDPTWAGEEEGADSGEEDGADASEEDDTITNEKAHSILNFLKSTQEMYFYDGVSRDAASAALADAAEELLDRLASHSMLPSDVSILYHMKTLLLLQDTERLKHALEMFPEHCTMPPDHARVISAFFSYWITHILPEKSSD
# UniProt O75616: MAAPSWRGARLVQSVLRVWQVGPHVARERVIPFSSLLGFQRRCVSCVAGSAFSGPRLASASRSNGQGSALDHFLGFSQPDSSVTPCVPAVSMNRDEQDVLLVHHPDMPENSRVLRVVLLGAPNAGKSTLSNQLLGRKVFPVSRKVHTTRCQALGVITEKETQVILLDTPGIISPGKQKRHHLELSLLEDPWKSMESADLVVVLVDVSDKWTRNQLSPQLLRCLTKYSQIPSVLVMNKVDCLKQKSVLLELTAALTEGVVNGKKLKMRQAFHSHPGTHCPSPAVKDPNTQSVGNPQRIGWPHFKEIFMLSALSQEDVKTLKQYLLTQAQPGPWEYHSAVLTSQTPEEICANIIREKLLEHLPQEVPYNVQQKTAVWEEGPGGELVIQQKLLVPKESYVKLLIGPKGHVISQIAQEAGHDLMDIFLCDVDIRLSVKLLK
# UniProt Q9Y2C4: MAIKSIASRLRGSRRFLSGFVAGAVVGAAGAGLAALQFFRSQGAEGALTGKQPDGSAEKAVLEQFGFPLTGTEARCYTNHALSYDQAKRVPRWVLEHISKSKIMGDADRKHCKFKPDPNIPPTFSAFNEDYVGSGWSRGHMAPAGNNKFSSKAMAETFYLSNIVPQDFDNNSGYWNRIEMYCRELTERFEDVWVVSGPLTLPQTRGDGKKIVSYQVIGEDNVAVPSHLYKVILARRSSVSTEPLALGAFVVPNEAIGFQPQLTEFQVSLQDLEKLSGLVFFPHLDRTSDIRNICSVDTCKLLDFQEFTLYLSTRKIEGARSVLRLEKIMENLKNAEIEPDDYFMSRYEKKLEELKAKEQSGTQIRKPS
# UniProt Q86V87: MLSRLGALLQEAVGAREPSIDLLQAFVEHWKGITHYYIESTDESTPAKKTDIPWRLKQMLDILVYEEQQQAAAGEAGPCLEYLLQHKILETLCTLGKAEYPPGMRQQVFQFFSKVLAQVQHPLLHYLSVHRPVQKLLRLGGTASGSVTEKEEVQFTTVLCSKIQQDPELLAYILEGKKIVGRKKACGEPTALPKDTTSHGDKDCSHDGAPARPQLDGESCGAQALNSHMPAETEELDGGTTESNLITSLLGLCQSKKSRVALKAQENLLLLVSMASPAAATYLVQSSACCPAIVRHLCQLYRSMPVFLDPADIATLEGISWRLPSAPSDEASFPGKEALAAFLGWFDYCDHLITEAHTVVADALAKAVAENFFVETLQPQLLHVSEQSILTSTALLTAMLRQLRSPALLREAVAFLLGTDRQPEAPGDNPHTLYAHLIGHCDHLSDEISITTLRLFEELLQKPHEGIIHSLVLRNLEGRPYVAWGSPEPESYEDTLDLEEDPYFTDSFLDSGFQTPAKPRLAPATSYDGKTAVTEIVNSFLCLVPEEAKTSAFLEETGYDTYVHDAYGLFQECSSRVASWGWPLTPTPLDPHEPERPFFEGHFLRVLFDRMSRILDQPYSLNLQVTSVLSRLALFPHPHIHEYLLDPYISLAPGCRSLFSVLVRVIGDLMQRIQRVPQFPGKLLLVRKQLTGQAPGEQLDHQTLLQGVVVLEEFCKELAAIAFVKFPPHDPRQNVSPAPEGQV
# UniProt P05160: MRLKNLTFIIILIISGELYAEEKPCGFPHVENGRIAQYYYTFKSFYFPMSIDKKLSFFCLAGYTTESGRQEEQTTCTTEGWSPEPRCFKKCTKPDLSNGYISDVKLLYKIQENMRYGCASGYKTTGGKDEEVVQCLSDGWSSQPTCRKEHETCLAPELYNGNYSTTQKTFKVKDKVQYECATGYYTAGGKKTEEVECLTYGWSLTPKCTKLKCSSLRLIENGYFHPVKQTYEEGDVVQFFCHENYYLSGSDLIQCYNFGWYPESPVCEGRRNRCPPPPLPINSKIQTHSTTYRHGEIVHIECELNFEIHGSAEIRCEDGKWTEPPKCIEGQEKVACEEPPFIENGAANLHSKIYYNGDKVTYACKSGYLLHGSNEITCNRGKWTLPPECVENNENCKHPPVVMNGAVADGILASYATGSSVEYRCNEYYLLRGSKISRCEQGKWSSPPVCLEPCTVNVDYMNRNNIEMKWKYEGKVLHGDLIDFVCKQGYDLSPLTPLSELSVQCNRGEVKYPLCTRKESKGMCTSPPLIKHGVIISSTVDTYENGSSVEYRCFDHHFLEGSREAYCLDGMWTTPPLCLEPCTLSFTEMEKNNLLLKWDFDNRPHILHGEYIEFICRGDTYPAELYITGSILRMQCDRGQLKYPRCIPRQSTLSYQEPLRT
# UniProt O95718: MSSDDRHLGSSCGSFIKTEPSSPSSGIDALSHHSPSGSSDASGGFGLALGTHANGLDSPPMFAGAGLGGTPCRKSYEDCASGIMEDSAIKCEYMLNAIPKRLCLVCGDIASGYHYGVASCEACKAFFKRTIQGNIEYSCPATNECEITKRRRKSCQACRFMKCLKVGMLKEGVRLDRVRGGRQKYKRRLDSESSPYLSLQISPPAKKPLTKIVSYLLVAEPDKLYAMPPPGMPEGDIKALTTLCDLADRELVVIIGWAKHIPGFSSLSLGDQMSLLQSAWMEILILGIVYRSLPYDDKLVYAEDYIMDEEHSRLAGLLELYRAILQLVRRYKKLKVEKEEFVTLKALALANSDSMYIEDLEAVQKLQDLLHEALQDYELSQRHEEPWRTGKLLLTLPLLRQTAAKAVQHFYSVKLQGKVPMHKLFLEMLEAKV
# UniProt Q5T8I3: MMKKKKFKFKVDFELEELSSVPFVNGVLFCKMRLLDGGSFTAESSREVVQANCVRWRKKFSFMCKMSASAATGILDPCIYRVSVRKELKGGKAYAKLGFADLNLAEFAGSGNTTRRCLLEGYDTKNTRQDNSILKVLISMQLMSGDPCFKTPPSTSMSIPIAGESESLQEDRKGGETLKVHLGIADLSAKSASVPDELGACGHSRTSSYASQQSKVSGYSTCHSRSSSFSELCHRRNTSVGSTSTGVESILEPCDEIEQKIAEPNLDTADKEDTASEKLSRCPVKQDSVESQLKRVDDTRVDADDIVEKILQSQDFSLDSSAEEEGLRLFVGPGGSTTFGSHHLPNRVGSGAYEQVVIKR
# UniProt Q6P1L5: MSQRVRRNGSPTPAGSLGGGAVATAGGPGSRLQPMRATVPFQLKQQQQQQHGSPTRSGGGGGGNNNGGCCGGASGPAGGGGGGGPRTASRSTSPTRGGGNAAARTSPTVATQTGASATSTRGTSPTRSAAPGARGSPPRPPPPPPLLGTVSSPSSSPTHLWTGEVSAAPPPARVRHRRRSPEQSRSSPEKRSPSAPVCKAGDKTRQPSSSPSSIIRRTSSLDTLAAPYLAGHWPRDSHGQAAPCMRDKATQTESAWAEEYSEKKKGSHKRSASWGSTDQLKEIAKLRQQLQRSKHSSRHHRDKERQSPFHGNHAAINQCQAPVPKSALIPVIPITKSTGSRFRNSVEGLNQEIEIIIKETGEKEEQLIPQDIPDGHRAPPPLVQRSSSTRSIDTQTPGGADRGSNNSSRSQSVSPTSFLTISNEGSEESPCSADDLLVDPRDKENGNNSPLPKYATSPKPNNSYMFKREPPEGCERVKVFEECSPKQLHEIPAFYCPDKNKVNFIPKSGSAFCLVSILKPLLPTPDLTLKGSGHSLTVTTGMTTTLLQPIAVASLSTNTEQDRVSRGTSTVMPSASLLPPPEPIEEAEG
# UniProt Q8IWE2: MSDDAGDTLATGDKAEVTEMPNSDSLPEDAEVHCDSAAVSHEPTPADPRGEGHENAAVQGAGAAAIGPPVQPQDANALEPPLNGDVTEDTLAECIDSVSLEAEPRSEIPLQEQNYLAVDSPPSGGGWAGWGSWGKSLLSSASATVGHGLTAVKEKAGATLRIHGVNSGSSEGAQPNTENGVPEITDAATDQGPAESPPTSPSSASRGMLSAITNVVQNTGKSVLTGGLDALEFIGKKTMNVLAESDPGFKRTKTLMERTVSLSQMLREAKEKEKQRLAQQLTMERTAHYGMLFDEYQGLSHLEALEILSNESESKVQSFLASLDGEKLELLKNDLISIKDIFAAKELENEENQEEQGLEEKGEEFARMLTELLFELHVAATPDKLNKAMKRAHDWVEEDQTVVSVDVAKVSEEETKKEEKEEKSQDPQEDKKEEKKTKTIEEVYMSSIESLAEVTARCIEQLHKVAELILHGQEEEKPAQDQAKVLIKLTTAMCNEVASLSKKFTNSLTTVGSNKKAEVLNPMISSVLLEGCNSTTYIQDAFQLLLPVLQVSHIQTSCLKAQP
# UniProt Q8IV48: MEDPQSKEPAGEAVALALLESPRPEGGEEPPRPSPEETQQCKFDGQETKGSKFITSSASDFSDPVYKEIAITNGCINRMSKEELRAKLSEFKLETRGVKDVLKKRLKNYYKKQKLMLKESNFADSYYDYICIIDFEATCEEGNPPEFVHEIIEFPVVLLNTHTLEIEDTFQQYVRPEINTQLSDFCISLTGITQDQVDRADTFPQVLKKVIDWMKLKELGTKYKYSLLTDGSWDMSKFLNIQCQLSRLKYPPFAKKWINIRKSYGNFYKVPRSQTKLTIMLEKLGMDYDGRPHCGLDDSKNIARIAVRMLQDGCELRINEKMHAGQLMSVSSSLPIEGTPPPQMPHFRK
# UniProt P00742, whole entry, looked up: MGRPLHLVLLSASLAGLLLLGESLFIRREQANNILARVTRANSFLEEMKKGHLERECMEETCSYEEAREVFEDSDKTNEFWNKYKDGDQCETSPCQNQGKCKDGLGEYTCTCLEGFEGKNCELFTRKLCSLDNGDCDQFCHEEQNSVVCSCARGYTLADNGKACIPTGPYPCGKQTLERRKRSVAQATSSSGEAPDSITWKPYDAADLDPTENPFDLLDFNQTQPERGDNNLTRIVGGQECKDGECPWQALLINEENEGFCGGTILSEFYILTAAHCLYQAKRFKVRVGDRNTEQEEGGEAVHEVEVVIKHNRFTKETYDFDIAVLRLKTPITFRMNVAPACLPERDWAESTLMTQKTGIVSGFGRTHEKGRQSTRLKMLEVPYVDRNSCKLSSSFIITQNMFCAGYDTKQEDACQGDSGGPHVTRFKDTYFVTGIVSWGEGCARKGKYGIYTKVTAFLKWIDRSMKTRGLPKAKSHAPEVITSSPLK
# UniProt Q7Z309: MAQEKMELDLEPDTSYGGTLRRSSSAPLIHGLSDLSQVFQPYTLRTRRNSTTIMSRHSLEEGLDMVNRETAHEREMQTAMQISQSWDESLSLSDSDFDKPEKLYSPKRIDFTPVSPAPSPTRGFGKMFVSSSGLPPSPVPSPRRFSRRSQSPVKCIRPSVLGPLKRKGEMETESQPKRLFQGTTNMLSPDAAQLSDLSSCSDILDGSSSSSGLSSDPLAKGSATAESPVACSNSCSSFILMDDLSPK
# UniProt Q9H098: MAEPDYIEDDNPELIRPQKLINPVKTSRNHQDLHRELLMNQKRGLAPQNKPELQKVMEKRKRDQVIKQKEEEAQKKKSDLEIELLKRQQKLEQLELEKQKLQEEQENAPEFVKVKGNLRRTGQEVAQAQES
# UniProt P25116: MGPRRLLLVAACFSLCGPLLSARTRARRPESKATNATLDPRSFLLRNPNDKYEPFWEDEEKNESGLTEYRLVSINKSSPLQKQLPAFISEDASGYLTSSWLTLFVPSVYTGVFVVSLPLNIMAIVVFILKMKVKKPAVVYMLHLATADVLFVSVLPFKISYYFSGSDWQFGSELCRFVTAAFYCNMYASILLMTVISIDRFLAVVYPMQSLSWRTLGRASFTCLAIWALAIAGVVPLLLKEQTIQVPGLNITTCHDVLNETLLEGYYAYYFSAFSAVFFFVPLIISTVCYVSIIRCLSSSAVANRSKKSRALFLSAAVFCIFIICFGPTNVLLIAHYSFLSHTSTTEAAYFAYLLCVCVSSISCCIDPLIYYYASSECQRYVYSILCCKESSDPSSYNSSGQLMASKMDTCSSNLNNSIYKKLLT
# The other results are listed elsewhere or left out.
# Experiments:
# Test in all cases: log2 fold change, soluble protein after heating vs DMSO (PISA); higher = thermal stabilisation; K562 cells, 10 uM, 30 min; active = over 0.2 and 3.5 SD of the protein, either way, in both replicates (recomputed)
# [1] = compound: CC1=C(SC2=C1C(=N[C@H](C3=NN=C(N32)C)CC(=O)N)C4=CC=C(C=C4)Cl)C
# Procedure, shortened: (§1)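 K562 cells at 2×10^6 cells/mL were exposed to 10 μM compound for 30 min, then aliquots were heated for 3 min across 48°C-58°C, pooled, and extracted in PBS containing 0.5% NP-40 at 4°C. The supernatant after 21,000xg for 90 min was taken as soluble protein and measured by TMTpro 16plex LC-MS/MS with channel sums equalised. Thermal stability is reported relative to control samples, with values from duplicates. Fold changes are given on a log2 scale.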
# [2] = compound: c1ccc([C@@H]2C[C@H]2NC2CCNCC2)cc1
# Procedure, shortened: as §1
# [3] = compound: C1=CC=C(C=C1)[C@H](COC2=CC3=C(C=C2)NC(=O)N3)NC(=O)C4=CC=CN(C4=O)CC5=CC(=C(C=C5)F)F
# Procedure, shortened: as §1
# [4] = compound: CC1=C2C(=CC=C1)N=C(N(C2=O)C3=CC=CC=C3C)CN4C=NC5=C(N=CN=C54)N
# Procedure, shortened: as §1
# [5] = compound: Cc1sc2c(c1C)C(c1ccc(Cl)cc1)=N[C@@H](CC(=O)OC(C)(C)C)c1nnc(C)n1-2
# Procedure, shortened: as §1
Target,log2 fold change [1],log2 fold change [2],log2 fold change [3],log2 fold change [4],log2 fold change [5]
ERCC1 isoform 3 (UniProt P07992),inactive: -0.216,inactive: 0.059,–,–,–
FAHD2B (UniProt Q6P2I3),inactive: -0.001,inactive: 0.051,inactive: 0.077,–,–
FAM204A (UniProt Q9H8W3),inactive: 0.131,inactive: -0.031,–,inactive: 0.048,inactive: 0.003
ESYT2 (UniProt H7BXI1),–,–,inactive: -0.022,inactive: -0.274,–
EPS8L2 isoform 3 (UniProt Q9H6S3),–,–,–,–,inactive: -0.188
ERICH1 (UniProt Q86X53),–,–,–,–,inactive: 0.203
EWSR1 (UniProt H7BY36),inactive: 0.043,inactive: 0.151,inactive: -0.207,inactive: 0.102,–
EPS15L1 (UniProt M0QY01),–,–,–,inactive: -0.243,–
ERAL1 (UniProt O75616),inactive: -0.145,inactive: 0.065,inactive: -0.073,inactive: -0.069,–
FADS1 (UniProt F5GYH4),–,–,inactive: -0.216,inactive: -0.02,inactive: -0.036
EVI5 isoform 2 (UniProt O60447),inactive: -0.04,inactive: 0.171,–,inactive: -0.026,inactive: -0.216
EXOG (UniProt Q9Y2C4),inactive: 0.064,inactive: -0.003,–,inactive: -0.002,inactive: -0.067
ETF1 isoform 2 (UniProt P62495),–,–,inactive: -0.113,inactive: 0.031,–
FAM160B2 (UniProt Q86V87),inactive: -0.203,inactive: 0.102,–,–,–
F13B (UniProt P05160),inactive: -0.018,inactive: 0.036,–,inactive: -0.083,inactive: 0.322
ESRRB isoform 1 (UniProt O95718),inactive: 0.08,inactive: 0.145,inactive: -0.102,inactive: 0.03,–

Target,log2 fold change [1],log2 fold change [2],log2 fold change [3],log2 fold change [4],log2 fold change [5]
FAM207A (UniProt Q9NSI2),–,–,inactive: 0.107,inactive: 0.001,inactive: 0.021
EVI2B isoform 2 (UniProt P34910),–,–,–,inactive: 0.096,–
FAM102B (UniProt Q5T8I3),–,–,–,inactive: -0.04,–
FAM117B (UniProt Q6P1L5),inactive: 0.283,inactive: -0.024,–,inactive: 0.116,inactive: -0.097
FAM114A1 (UniProt Q8IWE2),–,–,–,–,inactive: -0.363
ERI1 (UniProt Q8IV48),inactive: -0.288,inactive: -0.02,–,inactive: -0.047,inactive: 0.044
ERN1 (UniProt O75460),–,–,–,–,inactive: 0.071
F10 (UniProt P00742),–,–,inactive: -0.014,inactive: -0.148,inactive: -0.051
EYA3 (UniProt Q99504),inactive: -0.052,inactive: -0.025,–,inactive: 0.009,inactive: -0.245
F13A1 (UniProt P00488),–,–,inactive: 0.033,–,inactive: -0.019
FAM171A1 (UniProt Q5VUB5),–,–,–,inactive: 0.151,–
FAM122B isoform 2 (UniProt Q7Z309),inactive: 0.015,inactive: -0.09,–,–,–
F2RL3 (UniProt Q96RI0),inactive: 0.175,inactive: 0.032,–,inactive: 0.06,inactive: -0.197
FAM107B isoform 2 (UniProt Q9H098),–,–,–,inactive: -0.011,–
F2R (UniProt P25116),inactive: -0.106,inactive: 0.009,–,inactive: 0.113,inactive: 0.068
FAM174A (UniProt Q8TBP5),–,–,–,inactive: 0.303,inactive: -0.06

# As entered above:
# In log2 fold change [1], F2R (UniProt P25116) has inactive: -0.106
# In log2 fold change [4], ERI1 (UniProt Q8IV48) has inactive: -0.047
